Experimental data: paper PMC10257415
These are yes or no findings as the source states them, for the method shown. In cells and extracts the contact can be indirect. Some results given as binding are weak or reduced against the parent protein; the word gives no strength.

The chains behind the UniProt entries cited, without tags or fusion partners.
UniProt P40763: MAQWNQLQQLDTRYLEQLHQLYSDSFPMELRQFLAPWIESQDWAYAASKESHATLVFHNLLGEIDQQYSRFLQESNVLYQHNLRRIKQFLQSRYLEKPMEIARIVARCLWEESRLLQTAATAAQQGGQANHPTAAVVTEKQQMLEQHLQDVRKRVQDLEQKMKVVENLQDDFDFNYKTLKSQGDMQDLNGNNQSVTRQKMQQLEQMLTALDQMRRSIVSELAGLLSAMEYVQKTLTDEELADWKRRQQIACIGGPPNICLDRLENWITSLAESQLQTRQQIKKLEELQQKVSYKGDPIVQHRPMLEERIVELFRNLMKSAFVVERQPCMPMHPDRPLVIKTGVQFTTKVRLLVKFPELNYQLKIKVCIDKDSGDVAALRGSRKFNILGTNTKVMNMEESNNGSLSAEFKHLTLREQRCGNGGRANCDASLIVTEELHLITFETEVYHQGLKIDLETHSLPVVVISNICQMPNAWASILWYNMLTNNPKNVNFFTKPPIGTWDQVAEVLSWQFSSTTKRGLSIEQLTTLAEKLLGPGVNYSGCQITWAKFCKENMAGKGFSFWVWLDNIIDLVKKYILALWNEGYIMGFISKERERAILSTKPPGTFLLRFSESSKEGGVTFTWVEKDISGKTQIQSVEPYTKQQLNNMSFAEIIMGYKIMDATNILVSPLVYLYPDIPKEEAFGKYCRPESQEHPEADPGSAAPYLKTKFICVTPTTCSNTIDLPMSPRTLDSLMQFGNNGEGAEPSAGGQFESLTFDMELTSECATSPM

Target: T1, p100 (human (endogenous in primary CLL cells)) (UniProt Q00653)
T1 sequence: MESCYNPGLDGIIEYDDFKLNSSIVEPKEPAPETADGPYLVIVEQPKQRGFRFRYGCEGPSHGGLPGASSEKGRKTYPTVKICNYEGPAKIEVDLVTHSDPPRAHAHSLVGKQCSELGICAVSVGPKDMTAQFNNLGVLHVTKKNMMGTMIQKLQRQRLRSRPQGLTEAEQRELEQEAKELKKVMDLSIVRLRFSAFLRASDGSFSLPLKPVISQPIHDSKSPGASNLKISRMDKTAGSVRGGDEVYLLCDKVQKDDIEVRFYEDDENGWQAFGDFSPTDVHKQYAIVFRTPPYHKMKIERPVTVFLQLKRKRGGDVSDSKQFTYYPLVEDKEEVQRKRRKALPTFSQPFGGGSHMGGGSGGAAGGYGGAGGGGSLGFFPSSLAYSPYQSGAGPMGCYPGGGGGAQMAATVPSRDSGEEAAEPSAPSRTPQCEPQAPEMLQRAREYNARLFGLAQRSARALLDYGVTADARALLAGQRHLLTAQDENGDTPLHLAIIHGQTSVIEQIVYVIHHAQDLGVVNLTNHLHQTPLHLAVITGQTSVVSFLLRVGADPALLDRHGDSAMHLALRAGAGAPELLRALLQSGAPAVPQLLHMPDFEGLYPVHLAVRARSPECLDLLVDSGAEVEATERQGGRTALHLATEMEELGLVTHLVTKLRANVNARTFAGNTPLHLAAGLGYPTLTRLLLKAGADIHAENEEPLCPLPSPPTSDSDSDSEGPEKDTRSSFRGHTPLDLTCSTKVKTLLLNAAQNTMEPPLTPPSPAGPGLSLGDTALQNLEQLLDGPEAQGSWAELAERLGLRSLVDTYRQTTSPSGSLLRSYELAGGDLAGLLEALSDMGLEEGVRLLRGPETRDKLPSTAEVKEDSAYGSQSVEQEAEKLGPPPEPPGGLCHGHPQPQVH
Assay: proximity ligation; in situ PLA in fixed, permeabilized primary CLL cells cultured on 3T3 or 3T40 fibroblasts with or without IL-21 or IL-4 (30 min or 24 h; Selinexor in one experiment); rabbit anti-p65, anti-p-p65 or anti-p100/p52 with mouse anti-STAT3 or anti-STAT6; anti-mouse PLUS and anti-rabbit MINUS probes; confocal microscopy

- binding: binds
Substance: STAT3 (from UniProt P40763 1-770)
